Reference: PubChem BioAssay AID1259424 (University of Nebraska Medical Center, 2018)
In all, the deposit lists about 14,000 reagents; shown is a part drawn at random. 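Higher correlation or smaller distance means closer resemblance to KSR1 loss; control wells, including KSR1 knockdowns, recur on many plates.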 The record does not give: the time to read-out.

- Test: 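Seek colon cancer survival genes behaving like KSR1, using a six-gene signature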 (primary screen)
- Cell system: human HCT116 colon cancer cells
- Reagents: siRNA pool against human genes, 50 nM
- Read-out: 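Six signature mRNAs by branched-DNA multiplex assay, scaled to two housekeeping genes and non-targeting median, log2; matched to mean KSR1 knockdown profile by Pearson correlation and euclidean distance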
- Scale: mean correlation with KSR1 profile and KSR1 correlation: higher = expression change more like KSR1 knockdown; mean distance from KSR1 profile: higher = expression change less like KSR1 knockdown

no.	target gene	mean correlation with KSR1 profile	mean distance from KSR1 profile	KSR1 correlation, replicate 1	KSR1 correlation, replicate 2	KSR1 correlation, replicate 3
1	SHOX	-0.0661	2.02	0.382	0.000689	-0.158
2	PYY	-0.478	1.42	-0.205	-0.74	-0.232
3	OAZ2	-0.348	2.25	-0.389	-0.304	-0.259
4	ICAM1	0.000642	3.15	0.113	-0.0752	-0.111
5	TMEM121	0.356	1.9	0.446	0.114	0.425
6	MYH13	0.301	1.65	0.22	-0.0893	0.465
7	TP53TG3	-0.4	2.06	-0.318	-0.445	-0.547
8	ANAPC7	-0.639	2.07	-0.664	-0.573	-0.626
9	CHDH	-0.111	1.84	-0.0489	-0.436	-0.106
10	SYNC	0.147	2.52	-0.0375	0.137	0.2
11	KCNAB3	-0.331	1.45	-0.482	-0.555	-0.0256
12	NGDN	-0.382	2.72	-0.374	-0.337	-0.0741
13	JTB	-0.484	2.46	-0.278	-0.762	-0.225
14	NFKBIB	-0.199	1.63	0.0951	-0.17	-0.299
15	SLC22A12	-0.612	1.61	0.00515	-0.778	-0.473
16	PDLIM2	-0.306	1.7	0.0803	-0.494	-0.584
17	GYG1	-0.505	2.97	-0.437	-0.6	-0.488
18	ROS1	0.0268	2.24	0.102	-0.382	0.212
19	DPM3	-0.343	3.13	-0.289	-0.194	-0.488
20	GDF5	0.446	1.15	0.442	0.319	0.436
21	CAB39	-0.385	3.31	-0.279	-0.611	-0.482
22	AMPD2	-0.013	2.52	-0.0956	0.0614	-0.178
23	PGAP4	0.0336	2.75	0.0184	-0.0328	-0.0676
24	DMAC2L	-0.208	1.46	-0.491	-0.713	-0.326
25	OSCAR	-0.136	2.72	-0.182	0.000487	-0.321
26	PLA1A	0.133	1.86	-0.0268	0.446	0.157
27	BPI	-0.429	2.38	-0.438	-0.393	-0.33
28	MPZL2	-0.251	1.84	-0.184	-0.232	-0.347
29	B4GALNT1	0.25	3.36	-0.0472	0.462	0.453
30	PSMA1	0.353	4.87	0.576	-0.0173	0.195
31	CYP26B1	-0.212	1.84	-0.067	-0.727	-0.727
32	THAP1	-0.681	2.49	-0.781	-0.524	-0.391
33	B4GALT7	0.181	2.62	0.163	0.254	0.219
34	PKD1	0.484	2.48	0.175	0.337	0.508
35	NUP155	-0.383	1.93	-0.426	-0.505	-0.161
36	PRF1	0.501	1.5	0.418	0.575	0.218
37	ENTPD2	-0.369	3.36	-0.291	-0.425	-0.587
38	C6orf47	-0.946	2.04	-0.941	-0.875	-0.973
39	SCOC	-0.47	2.08	-0.561	-0.305	-0.63
40	GLOD4	-0.549	1.05	0.00559	-0.622	-0.444
41	CD28	-0.264	1.92	-0.135	-0.465	-0.156
42	TMEM25	0.757	1.95	0.758	0.669	0.777
43	GNAI1	0.282	3.01	0.227	0.329	0.296
44	RPN2	-0.265	2.09	-0.221	-0.224	-0.285
45	ADGRG1	0.97	0.486	0.95	0.964	0.923
46	SNPH	-0.201	1.07	-0.414	-0.15	0.518
47	SCUBE1	-0.0141	2.02	-0.346	-0.0246	0.0501
48	PSMC6	-0.569	3.61	-0.388	-0.675	-0.585
49	PIP	-0.426	2.51	-0.29	-0.263	-0.415
50	PGRMC1	-0.718	2.48	-0.78	-0.78	-0.75
51	BGLAP	0.142	1.07	0.0917	0.405	-0.152
52	EVX1	0.667	3.17	0.066	0.761	0.433
53	OSTF1	-0.499	2.82	-0.438	-0.58	-0.499
54	STK38L	0.254	2	0.595	0.133	-0.0308
55	CSPG4P2Y	-0.00737	3.16	0.283	-0.116	-0.32
56	CTSA	-0.282	1.71	-0.499	0.0072	-0.233
57	MAP3K2	-0.0315	2.31	0.0296	-0.0143	0.0594
58	ZNF142	0.0527	2.92	0.038	0.0893	-0.0711
59	LTA	0.268	3.09	0.0131	0.0346	0.683
60	NKAP	-0.361	2.3	-0.18	-0.356	-0.417
61	RPL10	-0.72	6.29	-0.732	-0.122	-0.628
62	SETD7	-0.0562	3.03	0.0412	-0.164	-0.112
63	ZMYND11	0.413	0.941	0.57	0.277	0.383

In a second layout: 4 of the entries above
target gene	mean correlation with KSR1 profile	mean distance from KSR1 profile	KSR1 correlation, replicate 1	KSR1 correlation, replicate 2	KSR1 correlation, replicate 3
DMAC2L	-0.208	1.46	-0.491	-0.713	-0.326
OSCAR	-0.136	2.72	-0.182	0.000487	-0.321
PLA1A	0.133	1.86	-0.0268	0.446	0.157
BPI	-0.429	2.38	-0.438	-0.393	-0.33
